# The supplement of paper PMC8728848
# The list shows a part of the results.
# B1: BIp1-His (Cryptococcus neoformans) (protein)
# chain: MFTKIFVALFAATAVLSAPVESAEKRITHTGRATFYSPSVGIGACGWQNTDEELVVALNAPQYALNADHNCGQSVRITNEQNGNQEIAKVVDLCPGCNDGDLDMSPALFGALNNNDFDQGVFPISWNFLPRDDTSSSN
# How the values were obtained:
# Test in all cases: glycan array binding signal (z-score within array); higher = stronger binding
# Conditions in all cases: glycan notation: IUPAC condensed, linker removed
# [1] = target: Neu5Ac(a2-3)Gal6S(b1-4)GlcNAc
# In short: (§1)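 Glycan array data were curated from 3228 arrays in the Consortium for Functional Glycomics database and kept only where the protein sequence was available. Glycan names were converted to IUPAC-condensed notation, and columns mapping to the same glycan were averaged. The binding signal is a within-array Z-score, averaged across arrays of the same protein sequence at different concentrations or buffers and across linkers. Negative Z-scores can be read as non-binding.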
# [2] = target: Neu5Ac(a2-3)Gal6S(b1-4)[Fuc(a1-3)]GlcNAc
# In short: as §1
# [3] = target: Neu5Ac(a2-3)GalNAc
# In short: as §1
# [4] = target: Neu5Ac(a2-3)GalNAc(b1-4)GlcNAc
# In short: as §1
# [5] = target: Neu5Ac(a2-3)[GalNAc(b1-4)]Gal(b1-4)Glc
# In short: as §1
# [6] = target: Neu5Ac(a2-3)[GalNAc(b1-4)]Gal(b1-4)GlcNAc
# In short: as §1
# [7] = target: Neu5Ac(a2-3)[GalNAc(b1-4)]Gal(b1-4)GlcNAc(b1-3)GalNAc
# In short: as §1
# [8] = target: Neu5Ac(a2-3)[Neu5Ac(a2-6)]GalNAc
# In short: as §1
# [9] = target: Neu5Ac(a2-6)Gal
# In short: as §1
# [10] = target: Neu5Ac(a2-6)Gal(b1-3)GlcNAc(b1-3)[Gal(b1-4)GlcNAc(b1-6)]Gal(b1-4)Glc
# In short: as §1
# [11] = target: Neu5Ac(a2-6)Gal(b1-4)Glc
# In short: as §1
# [12] = target: Neu5Ac(a2-6)Gal(b1-4)GlcNAc
# In short: as §1
# [13] = target: Neu5Ac(a2-6)Gal(b1-4)GlcNAc(b1-2)Man
# In short: as §1
# [14] = target: Neu5Ac(a2-6)Gal(b1-4)GlcNAc(b1-2)Man(a1-3)Man(b1-4)GlcNAc(b1-4)GlcNAc
# In short: as §1
# [15] = target: Neu5Ac(a2-6)Gal(b1-4)GlcNAc(b1-2)Man(a1-3)[Gal(b1-4)GlcNAc(b1-2)Man(a1-6)]Man(b1-4)GlcNAc(b1-4)GlcNAc
# In short: as §1
# [16] = target: Neu5Ac(a2-6)Gal(b1-4)GlcNAc(b1-2)Man(a1-3)[GlcNAc(b1-2)Man(a1-6)]Man(b1-4)GlcNAc(b1-4)GlcNAc
# In short: as §1
# [17] = target: Neu5Ac(a2-6)Gal(b1-4)GlcNAc(b1-2)Man(a1-3)[GlcNAc(b1-4)][Neu5Ac(a2-6)Gal(b1-4)GlcNAc(b1-2)Man(a1-6)]Man(b1-4)GlcNAc(b1-4)GlcNAc
# In short: as §1
# [18] = target: Neu5Ac(a2-6)Gal(b1-4)GlcNAc(b1-2)Man(a1-3)[Man(a1-6)]Man(b1-4)GlcNAc(b1-4)GlcNAc
# In short: as §1
# [19] = target: Neu5Ac(a2-6)Gal(b1-4)GlcNAc(b1-2)Man(a1-3)[Neu5Ac(a2-3)Gal(b1-4)GlcNAc(b1-2)Man(a1-6)]Man(b1-4)GlcNAc(b1-4)GlcNAc
# In short: as §1
# [20] = target: Neu5Ac(a2-6)Gal(b1-4)GlcNAc(b1-2)Man(a1-3)[Neu5Ac(a2-6)Gal(b1-4)GlcNAc(b1-2)Man(a1-6)]Man(b1-4)GlcNAc(b1-4)GlcNAc
# In short: as §1
# [21] = target: Neu5Ac(a2-6)Gal(b1-4)GlcNAc(b1-2)Man(a1-3)[Neu5Ac(a2-6)Gal(b1-4)GlcNAc(b1-2)Man(a1-6)]Man(b1-4)GlcNAc(b1-4)[Fuc(a1-6)]GlcNAc
# In short: as §1
# [22] = target: Neu5Ac(a2-6)Gal(b1-4)GlcNAc(b1-2)Man(a1-6)Man(b1-4)GlcNAc(b1-4)GlcNAc
# In short: as §1
# [23] = target: Neu5Ac(a2-6)Gal(b1-4)GlcNAc(b1-2)Man(a1-6)[Gal(b1-4)GlcNAc(b1-2)Man(a1-3)]Man(b1-4)GlcNAc(b1-4)GlcNAc
# In short: as §1
# [24] = target: Neu5Ac(a2-6)Gal(b1-4)GlcNAc(b1-2)Man(a1-6)[GlcNAc(b1-2)Man(a1-3)]Man(b1-4)GlcNAc(b1-4)GlcNAc
# In short: as §1
# [25] = target: Neu5Ac(a2-6)Gal(b1-4)GlcNAc(b1-2)Man(a1-6)[Man(a1-3)]Man(b1-4)GlcNAc(b1-4)GlcNAc
# In short: as §1
# [26] = target: Neu5Ac(a2-6)Gal(b1-4)GlcNAc(b1-2)[Neu5Ac(a2-6)Gal(b1-4)GlcNAc(b1-4)]Man(a1-3)[GlcNAc(b1-4)][Neu5Ac(a2-6)Gal(b1-4)GlcNAc(b1-2)[Neu5Ac(a2-6)Gal(b1-4)GlcNAc(b1-6)]Man(a1-6)]Man(b1-4)GlcNAc(b1-4)GlcNAc
# In short: as §1
# [27] = target: Neu5Ac(a2-6)Gal(b1-4)GlcNAc(b1-2)[Neu5Ac(a2-6)Gal(b1-4)GlcNAc(b1-4)]Man(a1-3)[GlcNAc(b1-4)][Neu5Ac(a2-6)Gal(b1-4)GlcNAc(b1-4)Man(a1-6)]Man(b1-4)GlcNAc(b1-4)GlcNAc
# In short: as §1
# [28] = target: Neu5Ac(a2-6)Gal(b1-4)GlcNAc(b1-2)[Neu5Ac(a2-6)Gal(b1-4)GlcNAc(b1-6)]Man(a1-6)[Neu5Ac(a2-6)Gal(b1-4)GlcNAc(b1-2)Man(a1-3)][GlcNAc(b1-4)]Man(b1-4)GlcNAc(b1-4)GlcNAc
# In short: as §1
# [29] = target: Neu5Ac(a2-6)Gal(b1-4)GlcNAc(b1-3)Gal(b1-3)GlcNAc
# In short: as §1
# [30] = target: Neu5Ac(a2-6)Gal(b1-4)GlcNAc(b1-3)Gal(b1-4)GlcNAc
# In short: as §1
# [31] = target: Neu5Ac(a2-6)Gal(b1-4)GlcNAc(b1-3)Gal(b1-4)GlcNAc(b1-2)Man(a1-3)[Neu5Ac(a2-6)Gal(b1-4)GlcNAc(b1-3)Gal(b1-4)GlcNAc(b1-2)Man(a1-6)]GalNAc
# In short: as §1
# [32] = target: Neu5Ac(a2-6)Gal(b1-4)GlcNAc(b1-3)Gal(b1-4)GlcNAc(b1-3)Gal(b1-4)GlcNAc
# In short: as §1
# [33] = target: Neu5Ac(a2-6)Gal(b1-4)GlcNAc(b1-3)Gal(b1-4)GlcNAc(b1-3)Gal(b1-4)GlcNAc(b1-2)Man(a1-3)[Neu5Ac(a2-6)Gal(b1-4)GlcNAc(b1-3)Gal(b1-4)GlcNAc(b1-3)Gal(b1-4)GlcNAc(b1-2)Man(a1-6)]GalNAc
# In short: as §1
# [34] = target: Neu5Ac(a2-6)Gal(b1-4)GlcNAc(b1-3)Gal(b1-4)GlcNAc(b1-3)GalNAc
# In short: as §1
# [35] = target: Neu5Ac(a2-6)Gal(b1-4)GlcNAc(b1-3)Gal(b1-4)GlcNAc(b1-3)[Neu5Ac(a2-6)Gal(b1-4)GlcNAc(b1-3)Gal(b1-4)GlcNAc(b1-6)]GalNAc
# In short: as §1
# [36] = target: Neu5Ac(a2-6)Gal(b1-4)GlcNAc(b1-3)Gal(b1-4)GlcNAc(b1-6)[Gal(b1-3)]GalNAc
# In short: as §1
# [37] = target: Neu5Ac(a2-6)Gal(b1-4)GlcNAc(b1-3)Gal(b1-4)[Fuc(a1-3)]GlcNAc(b1-3)Gal(b1-4)[Fuc(a1-3)]GlcNAc
# In short: as §1
# [38] = target: Neu5Ac(a2-6)Gal(b1-4)GlcNAc(b1-3)GalNAc
# In short: as §1
# [39] = target: Neu5Ac(a2-6)Gal(b1-4)GlcNAc(b1-3)[Neu5Ac(a2-6)Gal(b1-4)GlcNAc(b1-6)]GalNAc
# In short: as §1
# [40] = target: Neu5Ac(a2-6)Gal(b1-4)GlcNAc(b1-6)GalNAc
# In short: as §1
# [41] = target: Neu5Ac(a2-6)Gal(b1-4)GlcNAc(b1-6)[Gal(b1-3)GlcNAc(b1-3)]Gal(b1-4)Glc
# In short: as §1
# [42] = target: Neu5Ac(a2-6)Gal(b1-4)GlcNAc(b1-6)[Gal(b1-3)]GalNAc
# In short: as §1
# [43] = target: Neu5Ac(a2-6)Gal(b1-4)GlcNAc6S
# In short: as §1
# [44] = target: Neu5Ac(a2-6)GalNAc
# In short: as §1
# [45] = target: Neu5Ac(a2-6)GalNAc(b1-4)GlcNAc
# In short: as §1
binder,measurement,setting,value
B1,glycan array binding signal (z-score),[1],-0.848
same,glycan array binding signal (z-score),[2],-1.76
same,glycan array binding signal (z-score),[3],-0.1
same,glycan array binding signal (z-score),[4],-0.356
same,glycan array binding signal (z-score),[5],0.068
same,glycan array binding signal (z-score),[6],-0.125
same,glycan array binding signal (z-score),[7],-0.249
same,glycan array binding signal (z-score),[8],-0.376
same,glycan array binding signal (z-score),[9],0.953
same,glycan array binding signal (z-score),[10],0.117
same,glycan array binding signal (z-score),[11],0.012
same,glycan array binding signal (z-score),[12],-0.578
same,glycan array binding signal (z-score),[13],-0.47
same,glycan array binding signal (z-score),[14],0.176
same,glycan array binding signal (z-score),[15],-0.893
same,glycan array binding signal (z-score),[16],-0.486
same,glycan array binding signal (z-score),[17],-0.969
same,glycan array binding signal (z-score),[18],1.04
same,glycan array binding signal (z-score),[19],-0.486
same,glycan array binding signal (z-score),[20],-0.281
same,glycan array binding signal (z-score),[21],0.617
same,glycan array binding signal (z-score),[22],0.635
same,glycan array binding signal (z-score),[23],0.877
same,glycan array binding signal (z-score),[24],-0.415
same,glycan array binding signal (z-score),[25],0.266
same,glycan array binding signal (z-score),[26],-0.066
same,glycan array binding signal (z-score),[27],0.171
same,glycan array binding signal (z-score),[28],-0.142
same,glycan array binding signal (z-score),[29],-0.472
same,glycan array binding signal (z-score),[30],-1.05
same,glycan array binding signal (z-score),[31],-0.186
same,glycan array binding signal (z-score),[32],-0.069
same,glycan array binding signal (z-score),[33],1.79
same,glycan array binding signal (z-score),[34],-0.51
same,glycan array binding signal (z-score),[35],0.847
same,glycan array binding signal (z-score),[36],-0.827
same,glycan array binding signal (z-score),[37],-0.059
same,glycan array binding signal (z-score),[38],0.627
same,glycan array binding signal (z-score),[39],0.732
same,glycan array binding signal (z-score),[40],0.072
same,glycan array binding signal (z-score),[41],-0.354
same,glycan array binding signal (z-score),[42],-0.295
same,glycan array binding signal (z-score),[43],-1.31
same,glycan array binding signal (z-score),[44],-0.91
same,glycan array binding signal (z-score),[45],-1.18

# Quoted from the entries so far for reference:
binder,measurement,setting,value
B1,glycan array binding signal (z-score),[29],-0.472
same,glycan array binding signal (z-score),[30],-1.05
same,glycan array binding signal (z-score),[31],-0.186
same,glycan array binding signal (z-score),[32],-0.069
same,glycan array binding signal (z-score),[33],1.79
same,glycan array binding signal (z-score),[34],-0.51
same,glycan array binding signal (z-score),[35],0.847
same,glycan array binding signal (z-score),[36],-0.827
same,glycan array binding signal (z-score),[37],-0.059
same,glycan array binding signal (z-score),[38],0.627
same,glycan array binding signal (z-score),[39],0.732
same,glycan array binding signal (z-score),[40],0.072
same,glycan array binding signal (z-score),[41],-0.354
same,glycan array binding signal (z-score),[42],-0.295
